Conditions in all cases: 24 h
The subject of experiment [1] is Human fetal astrocytes. Kind of experiment: loss of total cells relative to no-compound high-control median (toxicity); higher = more toxic (fewer cells).
The test system of experiment [2] is Human fetal astrocytes. The description is as above. The source holds these as a separate data set.
Experiment [3] deals with Human fetal astrocytes. The experiment can be described thus: synaptosome phagocytosis (pHrodo/calcein intensity ratio) relative to plate median of data wells; higher = more phagocytosis.
The test system of experiment [4] is Human fetal astrocytes. Described as above. The source holds these as a separate data set.

Counter-ions that a name gives are not always drawn. Some of the results follow. Many values rest on one well or one pass, so single values are uncertain.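 Labelled rat cortical synaptosomes were engulfed by primary human fetal astrocytes. Engulfment equaled a red/green ratio, corrected for calcein live-cell signal and normalized to the plate median. Compounds were toxic when calcein dropped over 30%, and reduced phagocytosis when below 70% of the median above 5 µM.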

For the compound `Cn1cnc2c1c(=O)[nH]c(=O)n2C` [Theobromine], the “loss of total cells” value is -30.1% with Human fetal astrocytes [1] (1.39 µM); -12.9% in the experiment on Human fetal astrocytes [1] (2.78 µM); -3.9% in the experiment with Human fetal astrocytes [1] (5.56 µM); -8% with Human fetal astrocytes [1] (11.11 µM); -28% with Human fetal astrocytes [1] (22.22 µM); 6.2% in the experiment on Human fetal astrocytes [2] (1.39 µM). For the same compound, the “loss of total cells” value in the experiment with Human fetal astrocytes [2] (2.78 µM) is -15.9%; in the experiment on Human fetal astrocytes [2] (5.56 µM), -2.8%; with Human fetal astrocytes [2] (11.11 µM) it was 9.5%; in the experiment on Human fetal astrocytes [2] (22.22 µM), -7%. The synaptosome phagocytosis was 92.1% with Human fetal astrocytes [3] (1.39 µM); 81.2% in the experiment on Human fetal astrocytes [3] (2.78 µM); 98.6% in the experiment on Human fetal astrocytes [3] (5.56 µM); 108% in the experiment on Human fetal astrocytes [3] (11.11 µM); 99.1% in the experiment with Human fetal astrocytes [3] (22.22 µM); 112% with Human fetal astrocytes [4] (1.39 µM). Besides, the synaptosome phagocytosis in the experiment with Human fetal astrocytes [4] (2.78 µM) was 107%; with Human fetal astrocytes [4] (5.56 µM) it was 114%; with Human fetal astrocytes [4] (11.11 µM) it was 136%; in the experiment on Human fetal astrocytes [4] (22.22 µM), 133%.

Regarding `COc1ccc(C2CNC(=O)C2)cc1OC1CCCC1` (stereo not given) [Rolipram], the “loss of total cells” value was -11.5% with Human fetal astrocytes [1] (1.39 µM); -24.9% in the experiment on Human fetal astrocytes [1] (2.78 µM); -16.3% in the experiment on Human fetal astrocytes [1] (5.56 µM); 0.4% in the experiment on Human fetal astrocytes [1] (11.11 µM); -36.2% in the experiment with Human fetal astrocytes [1] (22.22 µM); -33.9% in the experiment with Human fetal astrocytes [2] (1.39 µM). The “loss of total cells” value in the experiment with Human fetal astrocytes [2] (2.78 µM) is 27.8%; with Human fetal astrocytes [2] (5.56 µM), 7.5%; in the experiment on Human fetal astrocytes [2] (11.11 µM) it was 29.8%; in the experiment on Human fetal astrocytes [2] (22.22 µM), 0.3%. The synaptosome phagocytosis in the experiment on Human fetal astrocytes [3] (1.39 µM) is 91.1%; with Human fetal astrocytes [3] (2.78 µM), 130%; in the experiment on Human fetal astrocytes [3] (5.56 µM) it was 93.1%; in the experiment on Human fetal astrocytes [3] (11.11 µM), 104%; with Human fetal astrocytes [3] (22.22 µM), 113%; in the experiment with Human fetal astrocytes [4] (1.39 µM) it was 91.8%. Besides, the synaptosome phagocytosis with Human fetal astrocytes [4] (2.78 µM) was 112%; with Human fetal astrocytes [4] (5.56 µM) it was 102%; in the experiment on Human fetal astrocytes [4] (11.11 µM), 108%; in the experiment on Human fetal astrocytes [4] (22.22 µM), 101%.

With `CN[C@H](CC(=O)O)C(=O)O` [N-Methyl-D-aspartic acid], the “loss of total cells” value in the experiment on Human fetal astrocytes [1] (1.39 µM) was -10%; in the experiment with Human fetal astrocytes [1] (2.78 µM), 14.9%; in the experiment with Human fetal astrocytes [1] (5.56 µM) it was 9.9%; in the experiment with Human fetal astrocytes [1] (11.11 µM), 5.7%; with Human fetal astrocytes [1] (22.22 µM), 12.1%; in the experiment with Human fetal astrocytes [2] (1.39 µM), -14.8%. Besides, the “loss of total cells” value in the experiment with Human fetal astrocytes [2] (2.78 µM) was -9.7%; in the experiment with Human fetal astrocytes [2] (5.56 µM), -0.7%; in the experiment with Human fetal astrocytes [2] (11.11 µM) it was 4.7%; in the experiment on Human fetal astrocytes [2] (22.22 µM) it was -7.4%. Further, the synaptosome phagocytosis in the experiment with Human fetal astrocytes [3] (1.39 µM) was 123%; in the experiment with Human fetal astrocytes [3] (2.78 µM), 88.1%; in the experiment on Human fetal astrocytes [3] (5.56 µM) it was 118%; with Human fetal astrocytes [3] (11.11 µM), 108%; with Human fetal astrocytes [3] (22.22 µM), 144%; with Human fetal astrocytes [4] (1.39 µM), 107%. Besides, the synaptosome phagocytosis was 93.5% in the experiment with Human fetal astrocytes [4] (2.78 µM), 110% in the experiment with Human fetal astrocytes [4] (5.56 µM), 80.8% in the experiment on Human fetal astrocytes [4] (11.11 µM) and 131% with Human fetal astrocytes [4] (22.22 µM).

In the case of `CC/C(=C(\c1ccccc1)c1ccc(OCCN(C)C)cc1)c1ccccc1` [Tamoxifen citrate], the “loss of total cells” value with Human fetal astrocytes [1] (1.39 µM) is -31.4%; in the experiment on Human fetal astrocytes [1] (2.78 µM) it was 0.9%; with Human fetal astrocytes [1] (5.56 µM) it was -4.5%; in the experiment on Human fetal astrocytes [1] (11.11 µM) it was 14.9%; in the experiment with Human fetal astrocytes [1] (22.22 µM), 46.9%; with Human fetal astrocytes [2] (1.39 µM) it was -6.2%. Moreover, the “loss of total cells” value with Human fetal astrocytes [2] (2.78 µM) was -3.7%; with Human fetal astrocytes [2] (5.56 µM), 19.5%; in the experiment on Human fetal astrocytes [2] (11.11 µM), 66%; in the experiment with Human fetal astrocytes [2] (22.22 µM), 83%. Further, the synaptosome phagocytosis in the experiment on Human fetal astrocytes [3] (1.39 µM) is 84.7%; in the experiment with Human fetal astrocytes [3] (2.78 µM), 71.8%; in the experiment on Human fetal astrocytes [3] (5.56 µM), 47.2%; with Human fetal astrocytes [3] (11.11 µM), 30.6%; with Human fetal astrocytes [3] (22.22 µM), 4.6%; in the experiment on Human fetal astrocytes [4] (1.39 µM) it was 93.1%. Further, the synaptosome phagocytosis was 106% in the experiment with Human fetal astrocytes [4] (2.78 µM), 73.6% with Human fetal astrocytes [4] (5.56 µM), 59.9% with Human fetal astrocytes [4] (11.11 µM) and 16.3% in the experiment on Human fetal astrocytes [4] (22.22 µM).

Regarding `O=C(CCc1ccc(O)cc1)c1c(O)cc(O)cc1O` [Phloretin], the “loss of total cells” value with Human fetal astrocytes [1] (1.39 µM) is -19.6%; in the experiment on Human fetal astrocytes [1] (2.78 µM), -19.5%; in the experiment on Human fetal astrocytes [1] (5.56 µM) it was 7.3%; in the experiment with Human fetal astrocytes [1] (11.11 µM) it was -1.1%; in the experiment on Human fetal astrocytes [1] (22.22 µM), -14.8%; in the experiment on Human fetal astrocytes [2] (1.39 µM), -25.4%. Moreover, the “loss of total cells” value was 10.5% in the experiment on Human fetal astrocytes [2] (2.78 µM), -19% in the experiment on Human fetal astrocytes [2] (5.56 µM), 8.1% in the experiment on Human fetal astrocytes [2] (11.11 µM) and 11.1% in the experiment on Human fetal astrocytes [2] (22.22 µM). For the same compound, the synaptosome phagocytosis with Human fetal astrocytes [3] (1.39 µM) was 94.5%; in the experiment with Human fetal astrocytes [3] (2.78 µM), 95.9%; with Human fetal astrocytes [3] (5.56 µM), 99%; in the experiment on Human fetal astrocytes [3] (11.11 µM), 110%; with Human fetal astrocytes [3] (22.22 µM), 99.2%; in the experiment on Human fetal astrocytes [4] (1.39 µM), 118%. Further, the synaptosome phagocytosis was 109% in the experiment on Human fetal astrocytes [4] (2.78 µM), 112% in the experiment with Human fetal astrocytes [4] (5.56 µM), 90.6% with Human fetal astrocytes [4] (11.11 µM) and 83.3% in the experiment with Human fetal astrocytes [4] (22.22 µM).

Take `NS(=O)(=O)c1cc2c(cc1Cl)NCNS2(=O)=O` [Hydrochlorothiazide]: the “loss of total cells” value in the experiment with Human fetal astrocytes [1] (1.39 µM) was 9.6%; in the experiment with Human fetal astrocytes [1] (2.78 µM), -17.1%; in the experiment with Human fetal astrocytes [1] (5.56 µM), 0.8%; in the experiment with Human fetal astrocytes [1] (11.11 µM), -10.3%; in the experiment on Human fetal astrocytes [1] (22.22 µM) it was -1.6%; in the experiment with Human fetal astrocytes [2] (1.39 µM), -2.7%. The “loss of total cells” value was -4.4% in the experiment on Human fetal astrocytes [2] (2.78 µM), -21.6% in the experiment on Human fetal astrocytes [2] (5.56 µM), 0.3% in the experiment on Human fetal astrocytes [2] (11.11 µM) and 4.6% in the experiment with Human fetal astrocytes [2] (22.22 µM). Besides, the synaptosome phagocytosis with Human fetal astrocytes [3] (1.39 µM) is 104%; in the experiment with Human fetal astrocytes [3] (2.78 µM), 124%; in the experiment on Human fetal astrocytes [3] (5.56 µM), 92%; in the experiment on Human fetal astrocytes [3] (11.11 µM) it was 90.2%; in the experiment with Human fetal astrocytes [3] (22.22 µM), 87.6%; with Human fetal astrocytes [4] (1.39 µM), 99.8%. Moreover, the synaptosome phagocytosis in the experiment on Human fetal astrocytes [4] (2.78 µM) was 78.7%; in the experiment on Human fetal astrocytes [4] (5.56 µM) it was 97.2%; in the experiment on Human fetal astrocytes [4] (11.11 µM) it was 90.7%; in the experiment with Human fetal astrocytes [4] (22.22 µM) it was 119%.

The values above are taken from the supplement of paper PMC10689618.
